The target of this assay is T1, N-terminally hexa-Histidine (His)-tagged PetP (Synechocystis sp. PCC 6803) (UniProt P72798).
T1 sequence: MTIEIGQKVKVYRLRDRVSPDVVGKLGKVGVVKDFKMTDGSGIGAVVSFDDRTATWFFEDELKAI
The assay can be described thus: pull-down; Synechocystis thylakoids (solubilized) applied to Ni2+-NTA agarose columns functionalized with His-PetP; washed and eluted as for purified cytb6f; control columns without His-PetP; only the target purified.

These are yes or no findings as the source states them, for the method shown. In cells and extracts the contact can be indirect. Binding calls can cover weak binding; strength is not graded here. Where a sequence is shown, tags or fusion partners need not be part of it.

As to “cytochrome b6f complex in solubilized Synechocystis thylakoid membranes”, the binding entry is “binds”.

The values above are taken from PMC9342900, “Cryo-EM structures of the Synechocystis sp. PCC 6803 cytochrome b6f complex with and without the regulatory PetP subunit” (Biochemical Journal, 2022).
